For at least one compound, name, drawing or mass did not settle the structure.
What was measured:
C-reactive protein (CRP) = assay: Serum C-reactive protein by ELISA in ApoE knock-out mice fed high-fat diet; type: in vivo, ApoE KO mice; details: 60 mg/kg body weight gavage, p<0.05
LDLR mRNA = LDLR mRNA expression in HepG2 by RT-PCR; type: cell-based, human; details: HepG2, serum-starved, concentration printed 2004 (20 μM elsewhere in the source)
Method: FIG. 10A-B show results of LDLR mRNA expression in HepG2 cell line induced by an exemplary cyclohexenone Compound 1. HepG2 cell line was serum-starved overnight and challenged with 20 μM Compound 1 at indicated time intervals (1A). Cells were then collected and the mRNA expression level of LDLR and GAPDH (internal control) were detected by RT-PCR. The relative expression level of LDLR to GAPDH was quantified by densitometry (1B). Experiments were conducted in triplicate. Bar represented as mean±SEM. * indicates p<0.05 and ** indicates p<0.01.
HepG2 cells were cultured in MEM alpha medium (Invitrogen/Gibco BRL, Grand Island, N.Y., USA). Cells were cultured at 37° C. in 5% CO2 in culture media supplemented with 10% fetal bovine serum (Invitrogen/Gibco BRL) and 100 U/ml streptomycin and penicillin (Invitrogen/Gibco BRL). For treatment, cells were seeded in six-well plates at 6.25×10^5 cells/well. On the following day, the media were changed to serum-free and the cells were serum-starved for 24 h. Compound 1 was dissolved in DMSO and diluted to the required concentration with serum-free medium. Cultures were then treated with diluted Compound 1 for the indicated time periods. […]
LDLR mRNA expression level was quantitative analysis by RT-PCR. […] The PCR products intensity was quantified by densitometry using Image-Pro Plus software (Media Cybernetics, Silver Spring, Md.).

[1] = tested on: PDGF-stimulated A7r5 cells; assay: Wound scratching test, PDGF-stimulated smooth muscle cell migration; type: cell-based, Rattus norvegicus; details: different concentrations
Method: 1. A7r5 cells (5×10^6 cells/ml) were seeded onto a 6-well cell culture plate and incubated at 37° C. overnight.
2. 1×PBS was used to wash the wells twice. Compound 1 with different concentrations in DMEM culture medium containing 1% FBS was added and pretreated for 20 hours.
3. A cross-shape acellular space was created by a sterile 200 μl pipette tip and washed twice with 1×PBS.
4. After removing PBS, 2 ml PDGF in DMEM culture medium containing 1% FBS were added. The cells were photographed by a microscope at 0, 6, 12 and 24 hours, respectively from the time of adding PDGF.
The inhibition of Compound 1 on migration of smooth muscle cells (A7r5 cells) was investigated in a wound scratching test by measuring PDGF-stimulated cell migration distance. The PDGF-stimulated cell culture without Compound 1 treatment was used as positive control.

`COC1=C(OC)C(O)C(C/C=C(\C)CC/C=C(\C)CCC=C(C)C)C(C)C1=O` (stereo not drawn) [Compound 1, 4-hydroxy-2,3-dimethoxy-6-methyl-5-(3,7,11-trimethyldodeca-2,6,10-trienyl)cyclohex-2-enone] was tested, and the “CRP concentration in serum” value (C-reactive protein (CRP)) was “significantly reduce CRP concentration”, the “expression of LDLR mRNA” value (LDLR mRNA) was “activated” and the “inhibition of PDGF-induced smooth muscle cell migration, in words” value [1] was “inhibited by Compound 1 in a dose-dependent manner”.

Source: patent US10905656B2, “Methods and compositions for treating arteriosclerotic vascular diseases” (GOLDEN BIOTECHNOLOGY CORPORATION, priority 2012, dated 2021)
